Data: paper doi:10.1101/262154
Results are given in words; binding and its absence hold for the method and conditions named. Some results given as binding are weak or reduced against the parent protein; the word gives no strength.

Amino acid sequences for entries named in this document (tags omitted).
UniProt Q9VDD3: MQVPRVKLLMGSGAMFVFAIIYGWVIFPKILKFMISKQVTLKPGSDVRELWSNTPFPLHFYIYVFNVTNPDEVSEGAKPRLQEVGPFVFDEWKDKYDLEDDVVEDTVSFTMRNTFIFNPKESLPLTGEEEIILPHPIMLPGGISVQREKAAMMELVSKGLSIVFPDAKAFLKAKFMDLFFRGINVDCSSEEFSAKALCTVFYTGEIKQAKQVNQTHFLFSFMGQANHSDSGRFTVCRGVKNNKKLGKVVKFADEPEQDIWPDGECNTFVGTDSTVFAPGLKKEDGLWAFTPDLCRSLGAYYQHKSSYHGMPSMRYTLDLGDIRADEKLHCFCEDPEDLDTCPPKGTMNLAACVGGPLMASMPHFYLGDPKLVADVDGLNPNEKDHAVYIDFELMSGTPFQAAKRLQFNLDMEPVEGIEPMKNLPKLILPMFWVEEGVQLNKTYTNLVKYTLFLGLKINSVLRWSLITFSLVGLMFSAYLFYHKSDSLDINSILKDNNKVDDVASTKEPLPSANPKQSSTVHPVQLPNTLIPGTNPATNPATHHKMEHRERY

B1: Drosophila melanogaster odorant receptor 22a (DmelOR22a) (receptor, UniProt P81909 1-397)
chain: MLSKFFPHIKEKPLSERVKSRDAFIYLDRVMWSFGWTEPENKRWILPYKLWLAFVNIVMLILLPISISIEYLHRFKTFSAGEFLSSLEIGVNMYGSSFKCAFTLIGFKKRQEAKVLLDQLDKRCLSDKERSTVHRYVAMGNFFDILYHIFYSTFVVMNFPYFLLERRHAWRMYFPYIDSDEQFYISSIAECFLMTEAIYMDLCTDVCPLISMLMARCHISLLKQRLRNLRSKPGRTEDEYLEELTECIRDHRLLLDYVDALRPVFSGTIFVQFLLIGTVLGLSMINLMFFSTFWTGVATCLFMFDVSMETFPFCYLCNMIIDDCQEMSNCLFQSDWTSADRRYKSTLVYFLHNLQQPITLTAGGVFPISMQTNLAMVKLAFSVVTVIKQFNLAERFQ
B2: Drosophila melanogaster odorant receptor 67d (DmelOR67d) (receptor, UniProt Q9VT92 1-391)
chain: MLKMAKVEPVERYCKVIRMIRFCVGFCGNDVADPNFRMWWLTYAVMAAIAFFFACTGYTIYVGVVINGDLTIILQALAMVGSAVQGLTKLLVTANNASHMREVQNTYEDIYREYGSKGDEYAKCLEKRIRITWTLLIGFMLVYIILLGLVITFPIFYLLILHQKVLVMQFLIPFLDHTTDGGHLILTAAHVILITFGGFGNYGGDMYLFLFVTHVPLIKDIFCVKLTEFNELVMKRNDFPKVRAMLCDLLVWHQLYTRMLQTTKKIYSIVLFVQLSTTCVGLLCTISCIFMKAWPAAPLYLLYAAITLYTFCGLGTLVENSNEDFLSVIYTNCLWYELPVKEEKLIIMMLAKAQNEVVLTAADMAPLSMNTALQLTKGIYSFSMMLMNYLG

Molecular target: Drosophila melanogaster sensory neuron membrane protein 1 (DmelSNMP1) (D. melanogaster) (UniProt Q9VDD3)
Assay: two-hybrid

Row | Binder | binding
1 | B1 | binds weakly
2 | B2 | binds weakly
